Test results: patent US7754243B2, “Aqueous suspension of nanoscale drug particles from supercritical fluid processing” (Clemson University Research Foundation, priority 2004, dated 2010)

How the values were obtained:
[1] = Statistical analysis of SEM images of nanoparticles in the product aqueous suspension; format: physicochemical; conditions: PVP; drug/polymer weight ratio varied from 0.3 to 4 (Ibuprofen) or 0.3 to 2 (Naproxen)
Method: A system similar to that illustrated in FIG. 1 was utilized to form aqueous suspensions of Ibuprofen particles. Specifically, a solution (0.25 mg/mL) of Ibuprofen (available from Sigma-Aldrich Corporation) in liquid carbon dioxide (high-purity, SFC grade obtained from Air Products Corporation) was prepared in the syringe pump 10. The solution was pushed through the heating unit 14 to reach the desired supercritical temperature of 40° C. before reaching the expansion nozzle 16. The rapid expansion was carried out at a pre-expansion pressure of 200 bar through a 50 μm orifice into an aqueous solution. A specimen of the product suspension was prepared for SEM imaging by depositing a few drops of the dilute nanoparticle aqueous suspension onto a carbon tape, followed by drying under ambient condition and then coating with platinum before imaging. SEM images were obtained on a Hitachi S-4700 Field-Emission SEM system.

[2] = Stability of the product aqueous suspension against precipitation; format: physicochemical
Method: A system similar to that illustrated in FIG. 1 was utilized to form aqueous suspensions of Ibuprofen particles. Specifically, a solution (0.25 mg/mL) of Ibuprofen (available from Sigma-Aldrich Corporation) in liquid carbon dioxide (high-purity, SFC grade obtained from Air Products Corporation) was prepared in the syringe pump 10. The solution was pushed through the heating unit 14 to reach the desired supercritical temperature of 40° C. before reaching the expansion nozzle 16. The rapid expansion was carried out at a pre-expansion pressure of 200 bar through a 50 μm orifice into an aqueous solution. FIG. 2A is an SEM analysis of the precipitate obtained when the receiving solution in the expansion chamber 18 was neat water. Initially, the aqueous suspension appeared homogeneous.

COc1ccc2cc([C@H](C)C(=O)O)ccc2c1 [Naproxen]
change in average particle size on variation of drug/polymer weight ratio [1]: insensitive
stability of product suspension [2]: no sign of instability after several days
